Measured values: PubChem BioAssay AID488840 (Broad Institute, 2010)
Hit rate of the full screen: of about 1,400 compounds, about 45 (3%) were called active.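 The calls were made as follows: active = half-maximal dose of signal decrease from fit no higher than ten times the top valid tested dose; inconclusive = fit invalid, or curve flat with 30 to 70% inhibition; inactive = the rest.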 This is one part of the list. Results with a measured potency or affinity are listed apart.

Chains of the proteins cited; added tags and fusions are not shown. Lines headed by an entry give the natural chain unless they say otherwise; changes in a name come on top.
UniProt O75164: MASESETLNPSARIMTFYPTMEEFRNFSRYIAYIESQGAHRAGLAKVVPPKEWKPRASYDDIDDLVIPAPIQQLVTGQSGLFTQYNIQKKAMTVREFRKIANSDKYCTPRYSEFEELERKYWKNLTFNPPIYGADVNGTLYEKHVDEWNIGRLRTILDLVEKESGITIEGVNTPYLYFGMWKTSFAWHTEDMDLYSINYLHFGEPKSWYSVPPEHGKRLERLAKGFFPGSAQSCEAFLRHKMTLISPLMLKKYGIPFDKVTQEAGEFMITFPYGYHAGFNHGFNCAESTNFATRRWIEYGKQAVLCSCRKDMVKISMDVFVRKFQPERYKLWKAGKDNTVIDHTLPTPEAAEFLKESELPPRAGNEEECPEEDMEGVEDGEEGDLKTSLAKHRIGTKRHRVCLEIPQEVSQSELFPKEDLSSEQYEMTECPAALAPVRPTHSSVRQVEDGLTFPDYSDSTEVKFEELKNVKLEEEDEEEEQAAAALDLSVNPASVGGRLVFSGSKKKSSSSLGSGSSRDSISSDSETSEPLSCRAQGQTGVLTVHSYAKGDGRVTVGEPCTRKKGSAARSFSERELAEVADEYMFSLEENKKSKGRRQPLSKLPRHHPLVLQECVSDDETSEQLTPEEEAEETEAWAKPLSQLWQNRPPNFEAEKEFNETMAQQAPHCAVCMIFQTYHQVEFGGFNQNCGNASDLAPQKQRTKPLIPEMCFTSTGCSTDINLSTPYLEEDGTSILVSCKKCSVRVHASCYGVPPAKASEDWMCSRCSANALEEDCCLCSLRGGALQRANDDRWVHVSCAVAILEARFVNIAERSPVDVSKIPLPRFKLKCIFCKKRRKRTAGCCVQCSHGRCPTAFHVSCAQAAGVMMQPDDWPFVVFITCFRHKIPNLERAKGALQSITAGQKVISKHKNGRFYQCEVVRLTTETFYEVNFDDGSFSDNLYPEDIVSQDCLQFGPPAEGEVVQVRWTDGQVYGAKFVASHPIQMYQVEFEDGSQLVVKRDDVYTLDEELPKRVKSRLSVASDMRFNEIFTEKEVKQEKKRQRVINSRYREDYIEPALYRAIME

The molecules below were run against Lysine-specific demethylase 4A (Homo sapiens) (UniProt O75164) (assay: JMJD2A histone demethylase inhibitors, dose response, selectivity assay for GASC-1 inhibitor project, biochemical, DELFIA europium, cherry-picked samples (AID 488840;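 also: europium signal reports the dimethyl H3K9 product detected by antibody so inhibitors lower it; 0% = median of neutral control wells and -100% = median of positive control wells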)). Conditions: GST-JMJD2A(1-420) H3K9me3 demethylation; at 6 µM (top of the series) unless noted.

Activity change, negative = inhibition, inactive:
CCOC(=O)C1CCN(C(=O)CN(c2ccc(OC)c(OC)c2)S(=O)(=O)c2ccccc2)CC1 11.2%
Cc1ccc(/C(N)=N/OC(=O)N2c3ccccc3Sc3ccccc32)cc1 -1.55%
C#CCOCCOCCOCCNc1nc(N2CCN(C(=O)[C@H](CCCN=C(N)N)n3cc(C(N)[C@H](C)CC)nn3)CC2)nc(N2CCN(C(=O)[C@H](CC(N)=O)n3cc(C(N)[C@@H](C)CC)nn3)CC2)n1 (some centres undefined) -3.16%
O=C(OCC(=O)N1CCCC1)c1ccc(S(=O)(=O)Nc2ccccc2)cc1 -7.08%
CSc1ccc(-c2nc(CSCC(=O)N3CCOCC3)c(C)o2)cc1 4.78%
N/C(=N\OC(=O)COc1cc(Cl)c(Cl)cc1Cl)c1ccncc1 1.93%
O=C1CCCC2=C1C(c1ccc(OS(=O)(=O)c3ccc(Cl)cc3)cc1)C1=C(CCCC1=O)O2 -6.68%
O=[N+]([O-])c1ccc(O)c(-c2nn[nH]n2)c1 -10.2%
Cc1ccc(NC(=O)/C=C/c2cccs2)c([N+](=O)[O-])c1 1.26%
CC(Sc1nc2c(cc1C#N)CCCCC2)C(=O)O (centres undefined) -1.12%
CCC(C)(C)n1nnnc1CN1CCc2ccccc21 -14.8%
Oc1ccccc1N1CCN(C(=S)NCc2ccccc2)CC1 -0.917%
Cc1ccc(S(=O)(=O)N2CCOC2CNC(=O)C(=O)NCCc2ccc(S(N)(=O)=O)cc2)cc1 (centres undefined) -5.22%
CCOC(=O)C1=C(c2ccccc2)NC(=O)NC1c1ccc(O)c(OCC)c1 (centres undefined) 3%
CCCC(=O)Nc1ccc(C(=O)NCC2CCCO2)cc1 (centres undefined) -6.1%
COc1ccc(NC(=O)NCCCCc2ccccc2)c(OC)c1 6.33%
COc1ccc(S(=O)(=O)Nc2ccc3c(c2)C(=O)N([C@H](C)CO)C[C@H](C)[C@H](CN(C)Cc2ccc(C(=O)O)cc2)O3)cc1 3.68%
O=C(c1ccsc1)N1CCN(C(=O)c2cccs2)CC1 4.15%
C=CCc1c(C)nc(SC(C)C)[nH]c1=O -9.55%
CCOCCCNC(=O)c1c[nH]c2ccc(C)cc2c1=O 0.456%
O=C(N/N=C/c1ccc([N+](=O)[O-])o1)c1cn(-c2ccccc2)nc1-c1ccc(F)cc1 1.73%
CS(=O)(=O)c1ccccc1-c1csc(N2CCC(C(N)=O)CC2)n1 6.68%
CC(C)N(Cc1ccccc1)C(=O)COC(=O)c1ccc2c(c1)OCCO2 -4.82%
CC(C)(C)n1nc2c(c1NC(=O)c1ccc(Br)o1)CS(=O)C2 (centres undefined) -1.29%
COc1ccc(NC(=S)N2CCC(C(=O)N3CCCCCC3)CC2)cc1 0.103%
COc1cccc(/C=C/C(=O)OCC(=O)Nc2cccc(S(=O)(=O)N(C)C)c2)c1 -5.44%
CCc1ccc2oc(=O)cc(CN3CCOCC3)c2c1 -6.34%
Cn1c(=O)[nH]c(=O)c2c1nc(NCCCO)n2Cc1ccc(F)cc1 1.84%
CCc1ccc(S(=O)(=O)Nc2nnc(N)s2)cc1 4.57%
N/C(=N\NC(=O)c1ccc(Cl)cc1)c1cnccn1 -2.11%
CCCCN(C)C(=O)CCC(=O)NNc1nc2ccccc2c2nc(C)nn12 -0.895%
O=C(CSc1ncccn1)Nc1ccc(S(=O)(=O)N2CCCCC2)cc1 -0.0764%
COc1ccc(C(CNC(=O)c2oc3cc(Br)ccc3c2C)N2CCCCC2)cc1 (centres undefined) 0.554%
CC(=O)Nc1cc2c(cc1NC(=O)Cn1nc(-c3ccccc3)ccc1=O)OCCO2 -6.25%
COc1ccc(Br)cc1CN(C)CC(=O)NCc1ccc(F)cc1 -3.07%
Cc1ccc(NC(=O)CSc2ncc(S(=O)(=O)c3ccccc3)c(=O)[nH]2)cc1C -3.52%
CCC(CO)Oc1cc(NC(=O)c2cccc(OC)c2)c2ncn(C(C)C)c2c1 (centres undefined) 5.07%
CC(C)(C)NC(=O)C1CCN(C(=O)c2ccc(Br)cc2)CC1 8.98%
CC(=O)C[C@@H](O)CC(=O)[C@H]1OC(=O)[C@H](C)C/C=C\Cc2ccccc21 -4.94%
CCN(CC)CCSc1nc2ccccc2c(=S)n1-c1ccccc1 -2.42%
CCc1nn2c(N3CCOCC3)cc(C)nc2c1-c1ccc(F)cc1 1.11%
CC(=O)c1ccc(O[C@@H]2O[C@H](CO)[C@@H](O)[C@H](O)[C@H]2O)cc1 -4.17%
O=C(Cn1cnc2ccccc2c1=O)NCc1cccs1 1.77%
CCOC(=O)Cn1c(=O)cnc2ccccc21 -2.43%
CC(=O)Oc1ccc(NC(=O)Cc2ccccc2)c(C(=O)O)c1 -0.611%
CC(C)CCN(C(=O)C1=COCCO1)c1c(N)n(Cc2ccccc2)c(=O)[nH]c1=O -0.136%
COCCn1nnnc1C(c1ccccc1)N1CCN(C(=O)c2ccco2)CC1 (centres undefined) -1.64%
Cc1cccc(NC(=O)CCN2CCN(C/C=C/c3ccccc3)CC2)c1 2.01%
CCNC(=S)NNC(=O)c1csc2c1CCC(C)C2 (centres undefined) 7.57%
O=C(c1cccs1)N1CCN(S(=O)(=O)c2ccc(F)cc2)CC1 -5.6%
CCCC(=O)NC(c1cccs1)c1cc(Cl)c2cccnc2c1O (centres undefined) -6.38%
COc1ccc(CC(=O)Nc2ccc(S(=O)(=O)N(C)C)cc2)cc1OC 5.99%
O=C(CSc1nnc(CNC(=O)c2ccco2)o1)NC1CCCC1 6.13%
Cc1nc(C(C)NC(=O)CCc2nnc(CCCc3ccccc3)o2)c(C)s1 (centres undefined) -0.411%
CCOC(=O)c1sc(=S)n(-c2ccc(Cl)cc2)c1SC -0.619%
N#Cc1ccc(OCC(=O)Nc2ccccc2NS(=O)(=O)c2cccs2)cc1 -0.213%
CCOc1ccc(CN(C)CC(=O)Nc2cc(C)c(C)cc2[N+](=O)[O-])cc1 -2.71%
COc1ccc(NC(=S)NCCCn2ccnc2)cc1 3.84%
O=C(OCCCOC(=O)c1ccc(Br)o1)c1ccc(Br)o1 3.48%
Cc1ccc(-c2noc(C3CCN(S(C)(=O)=O)CC3)n2)o1 -5.49%
O=c1c2cnn(-c3ccccc3)c2nc(-c2cccs2)n1-c1ccc(Cl)cc1 8.94%
Cc1nnc(-c2cccc(Br)c2)c2cn(-c3ccccc3Cl)nc12 3.49%
COc1ccc(Nc2ncnc3sc(-c4ccccc4)cc23)cc1OC -1.17%
CCC(=O)Nc1cc2c(cc1C(=O)CC)OCCO2 -2.03%
CCOc1cc(NC(=S)NCCOC)c(OCC)cc1NC(=O)c1cccs1 1.19%
CC(=O)N/C(=C\c1ccccc1)C(=O)OCC(=O)NC1CCCC1 1.36%
O=C(O)c1ccc2c(c1)C(=O)N(CCC1=CCCCC1)C2=O -1.94%
C#CCOCCOCCOCCNc1nc(N2CCN(C(=O)C([C@@H](C)O)n3cc([C@@H](N)CCCCN)nn3)CC2)nc(N2CCN(C(=O)[C@H](CC(N)=O)n3cc([C@@H](N)C(C)C)nn3)CC2)n1 (some centres undefined) 0.979%
Cc1ccc2nc(-c3cccc(NS(C)(=O)=O)c3)cc(-c3ccccc3)c2c1 1.92%
C=CCNC(=S)Nc1ccc(N2CCOCC2)c(S(=O)(=O)Nc2ccccc2Cl)c1 4.84%
Cc1c(NC(=O)CCN2C(=O)c3ccccc3C2=O)c(=O)n(-c2ccccc2)n1C 4.24%
CC1CCN(S(=O)(=O)c2ccc3[nH]c(=O)[nH]c3c2)CC1 -2.98%
CC1=NN(C(N)=S)C(=O)C1N=Nc1c(C)cc(C)cc1C (centres undefined) 3.02%
CN1CCN(c2nc3ccccn3c(=O)c2/C=C(\C#N)S(=O)(=O)c2ccc(Cl)cc2)CC1 -2.4%

Reprinted at random: 2 compounds from above, in no set order.
Activity change, negative = inhibition, inactive:
O=C(c1cccs1)N1CCN(S(=O)(=O)c2ccc(F)cc2)CC1 -5.6%
CCOC(=O)c1sc(=S)n(-c2ccc(Cl)cc2)c1SC -0.619%

An excerpt from the list above, as a working copy:
Activity change, negative = inhibition, inactive:
CCCCN(C)C(=O)CCC(=O)NNc1nc2ccccc2c2nc(C)nn12 -0.895%
O=C(CSc1ncccn1)Nc1ccc(S(=O)(=O)N2CCCCC2)cc1 -0.0764%
